Experimental findings from PMC5928880 (Theranostics, 2018) are described below.

What all share (type): cell-based, human
One assay has as its system Kasumi-1 cells. Description: Antiproliferation assay. Conditions: read-out: Antiproliferative activity EC50, Kasumi-1.
The next assay has as its system Jurkat leukemia cells. Description: Antiproliferation assay. To be noted: read-out: Antiproliferative activity EC50, Jurkat.
A further assay relates to SKNO-1 cells. Description: Antiproliferation assay. To be noted: read-out: Antiproliferative activity EC50, SKNO-1.
The subject of another assay is NB4 cells. The assay is described as follows: Antiproliferation assay. To be noted: read-out: Antiproliferative activity EC50, NB4.
Another assay has as its system MV4-11 cells. Description: Antiproliferation assay. Conditions: read-out: Antiproliferative activity EC50, MV4-11.
Assay [1] deals with MCF-7 (breast cancer) cells. Description: Antiproliferation assay. To be noted: read-out: Antiproliferative activity EC50, MCF-7.
Assay [2] relates to normal fibroblast WI-38 cells. Description: Antiproliferation assay. Conditions: read-out: Antiproliferative activity EC50, WI-38.
For assay [3], the system named is Kasumi-1 and SKNO-1 cells. The assay is described as follows: Antiproliferation assay, R-E leukemia cells. Conditions: less active than Bet.

The term EC50 denotes the midpoint of the concentration-response curve. Take `CC(=O)OCC(=O)[C@@]1(O)[C@@H](C)C[C@H]2[C@@H]3CCC4=CC(=O)C=C[C@]4(C)[C@@]3(F)[C@@H](O)C[C@@]21C` [Bet-Ac, betamethasone-21-acetate]: the EC50 with Kasumi-1 cells was 0.05 µM; in the assay on Jurkat leukemia cells it was more than 50 µM; in the assay on SKNO-1 cells it was 0.12 µM; with NB4 cells, more than 50 µM; in the assay with MV4-11 cells it was more than 50 µM; in assay [1], more than 50 µM. For the same compound, the 50% effective concentration (EC50) in assay [2] was more than 50 µM. For the same compound, in assay [3], the “Activity compared to Bet (fold less)” value was ~ 2 fold.
